Data on four compounds can be found in PMC10377586 (Biomolecules, 2023).

Some entries repeat one wording, which the source may state once for all of them.

This data set is described as follows: DPPH antioxidant assay. The format is physicochemical. As to conditions: 50 µM. The text has this: The 2,2-diphenyl-1-picrylhydrazyl (DPPH) assay was used to determine the antioxidant properties of selected compounds using ascorbic acid, trolox, and quercetin as references. […] From a structural point of view, 21 and 22 share a common pyrimido[2,1-f]purinedione core with propyl or butyl substituents at the N1- and N3-position. Compounds 11i and 11l, containing hexyl or phenoxyethyl as N7-substituents, were the only structures in the groups of bicyclic xanthine derivatives that lacked antioxidant activity in the DPPH assay.
Antioxidant properties of considered structures were evaluated in DPPH test. The assay utilizes a stable free radical 2,2-diphenyl-1-picrylhydrazyl (DPPH). DPPH has a deep violet color in solution and strong absorption band at 520 nm. The antioxidant activity of the tested compounds was defined by their ability to induce the formation of the reduced form of DPPH. Upon reduction, DPPH color turned pale yellow, which manifested by decreased sample absorption at 520 nm and was measured in conducted experiments using EnSpire microplate reader (PerkinElmer). Antioxidant activity of xanthine derivatives and reference compounds was tested in triplicate at 50 µM concentration and normalized to the activity of reference radical scavenger—quercetin.
Figure 2 Antioxidant properties of xanthine derivatives evaluated in the DPPH test. All compounds were tested at 50 µM concentration. Results were normalized to the antioxidant activity measured for quercetin. ASC, ascorbic acid; TLX, trolox; QCT, quercetin.

As to `CCCCCCn1c(NCCc2ccc(O)c(O)c2)nc2c1c(=O)n(C)c(=O)n2C` [Compound 11i, 8-((3,4-Dihydroxyphenethyl)amino)-7-hexyl-1,3-dimethyl-3,7-dihydro-1H-purine-2,6-dione], the “antioxidative activity in DPPH assay compared with quercetin” value is on record as “significantly lower antioxidative activity than quercetin”.

With `Cn1c(=O)c2c(nc(NCCc3ccc(O)c(O)c3)n2CCOc2ccccc2)n(C)c1=O` [Compound 11l, 8-((3,4-Dihydroxyphenethyl)amino)-1,3-dimethyl-7-(2-phenoxyethyl)-3,7-dihydro-1H-purine-2,6-dione], the “antioxidative activity in DPPH assay compared with quercetin” value was “significantly lower antioxidative activity than quercetin”.

For the compound `CCCn1c(=O)c2c(nc3n2CCCN3CCc2ccc(O)c(O)c2)n(CCC)c1=O` [Compound 21, 9-(3,4-Dihydroxyphenethyl)-1,3-dipropyl-6,7,8,9-tetrahydropyrimido[2,1-f]purine-2,4(1H,3H)-dione], the “antioxidative activity in DPPH assay compared with quercetin” value is given as “significantly lower antioxidative activity than quercetin”.

With `CCCCn1c(=O)c2c(nc3n2CCCN3CCc2ccc(O)c(O)c2)n(CCCC)c1=O` [Compound 22, 1,3-Dibutyl-9-(3,4-dihydroxyphenethyl)-6,7,8,9-tetrahydropyrimido[2,1-f]purine-2,4(1H,3H)-dione], the “antioxidative activity in DPPH assay compared with quercetin” value is listed as “significantly lower antioxidative activity than quercetin”.
